Results are given in words; binding and its absence hold for the method and conditions named. Binding seen in cells or lysates may run through a third protein. Binding calls can cover weak binding; strength is not graded here. Tags and fused reporters may be left off the sequences shown.
Legend:
TAP-tagged Tma46 (yeast) = target: T1, TAP-tagged Tma46 (yeast) (UniProt Q12000); assay: co-IP; extracts of Δrbg1 yeast expressing Tma46–TAP and HA-tagged Rbg1 variants; Tma46–TAP precipitated on IgG beads, 4°C 2 h, 150 mM NaCl; western blot of HA
T1 sequence: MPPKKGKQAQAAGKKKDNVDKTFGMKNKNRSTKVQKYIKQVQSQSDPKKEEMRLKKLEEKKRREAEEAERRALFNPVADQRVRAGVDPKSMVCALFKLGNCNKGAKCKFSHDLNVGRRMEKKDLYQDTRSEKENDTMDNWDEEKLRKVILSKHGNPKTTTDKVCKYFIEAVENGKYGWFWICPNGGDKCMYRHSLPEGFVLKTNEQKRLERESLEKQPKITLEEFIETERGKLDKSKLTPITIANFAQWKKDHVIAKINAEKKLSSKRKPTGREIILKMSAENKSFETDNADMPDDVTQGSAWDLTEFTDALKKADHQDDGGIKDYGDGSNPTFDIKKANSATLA

TAP-tagged Rbg1 (yeast) = target: T2, TAP-tagged Rbg1 (yeast) (UniProt P39729); assay: co-IP; extracts of Δtma46 yeast with TAP-tagged Rbg1 and HA-Tma46 variants on a centromeric plasmid; Rbg1-TAP precipitated on IgG beads, 4°C 2 h, 150 mM NaCl; western blot of HA
T2 sequence: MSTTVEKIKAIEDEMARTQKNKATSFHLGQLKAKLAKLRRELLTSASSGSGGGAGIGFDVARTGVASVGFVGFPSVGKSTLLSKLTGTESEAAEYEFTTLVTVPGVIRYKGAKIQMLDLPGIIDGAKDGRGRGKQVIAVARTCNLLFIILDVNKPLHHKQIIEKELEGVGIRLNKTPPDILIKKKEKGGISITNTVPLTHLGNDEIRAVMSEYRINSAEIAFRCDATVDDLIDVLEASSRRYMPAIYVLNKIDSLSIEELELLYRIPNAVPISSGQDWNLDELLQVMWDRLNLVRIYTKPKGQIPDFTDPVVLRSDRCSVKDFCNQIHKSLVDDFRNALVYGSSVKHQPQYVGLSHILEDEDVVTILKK

Substance | binding (TAP-tagged Tma46 (yeast)) | binding (TAP-tagged Rbg1 (yeast))
HA-tagged Rbg1 lacking the HTH domain (yeast) (domain or fragment) | binds | –
HA-tagged Rbg1 lacking the S5D2L domain (from UniProt P39729) (enzyme) | binds | –
HA-tagged Rbg1 lacking the TGS domain (yeast) (domain or fragment) | no binding | –
HA-tagged Tma46 lacking helix α1 (from UniProt Q12000) | – | binds weakly

— paper PMC3510508, “Rbg1–Tma46 dimer structure reveals new functional domains and their role in polysome recruitment” (Nucleic Acids Research, 2012)
